Experimental data from PubChem BioAssay AID256 (DTP/NCI, 2004).
The list shows only some results of the screen, not a fair sample: it gathers tests that were run many times, whatever their T/C, doses with no T/C, and many T/C values between a quarter and a half above the control. Further doses and runs are listed elsewhere. T/C is the treated group as % of the vehicle group. Some doses have a count of surviving animals in place of a T/C: the source holds a T/C of zero for them, seemingly a mark for toxic or unscored doses. Some doses without a T/C left all or most animals alive at the check, yet need not have been tolerated: the source hardly ever lists a survival T/C far under the control, and the zero likely stands for such cases as well. Survivors were counted at the toxicity check, usually on the fifth day, unless a day is given; later deaths do not show. Schedule codes are those of the source, read here as Q, the interval in days (D) or hours (H), X, the number of doses. Some entries hold several experiments; their values stand side by side, smallest first. For survival time, the PubChem record calls one and a half times the control and up active, and a quarter to a half above the control has no call in these data; cut-offs in other NCI protocols can differ. Additions like (4×) give the number of equal values in this list. Some T/C values are followed by the survivors on the day toxicity was checked, most often the fifth; where none is given, no animal had died by that day.

Test system: CD2F1 mice, L1210 leukemia ip, survival T/C
Assay: NCI In Vivo Anticancer Drug Screen. Data for tumor model L1210 Leukemia (intraperitoneal) in CD2F1 (CDF1) mice
Settings: higher T/C = longer survival
Method: The antitumor activity of compounds was measured in mice bearing transplantable tumors. Survival or tumor size were measured and the results are expressed as the measurement made in the treated group (T) divided by the measurement made in the vehicle treated control group (C). The tumor model used in this assay is L1210 Leukemia (intraperitoneal) in CD2F1 (CDF1) mice

[1] = T/C endpoint: mean survival time, dose: 300.0 mg/kg/injection, schedule: Q01DX001 (ip), vehicle: saline
[2] = T/C endpoint: mean survival time, dose: 200.0 mg/kg/injection, schedule: Q01DX009 (ip), vehicle: Klucel (hydroxypropylcellulose) (HPC)
[3] = T/C endpoint: mean survival time, dose: 400.0 mg/kg/injection, schedule: Q04DX003 (ip), vehicle: saline with Tween-80
[4] = T/C endpoint: mean survival time, dose: 100.0 mg/kg/injection, schedule: Q04DX003 (ip), vehicle: saline with Tween-80
[5] = T/C endpoint: mean survival time, dose: 200.0 mg/kg/injection, schedule: Q04DX003 (ip), vehicle: saline with Tween-80
[6] = T/C endpoint: median survival time, dose: 50.0 mg/kg/injection, schedule: Q01DX009 (ip), vehicle: saline
[7] = T/C endpoint: mean survival time, dose: 200.0 mg/kg/injection, schedule: Q01DX001 (ip), vehicle: saline with Tween-80
[8] = T/C endpoint: mean survival time, dose: 400.0 mg/kg/injection, schedule: Q01DX001 (ip), vehicle: saline with Tween-80

For `O=C(O)c1[nH]c2c([N+](=O)[O-])cc([N+](=O)[O-])cc2c1C(=O)O`, the survivor count [1] was 0 of 6.

In the case of `Nc1nc2ccc(Cl)cc2[nH]1`, the survivor count [2] was 1 of 3.

`NNc1nc(=O)[nH]nc1SCc1ccccc1` was tested, and the survivor count [1] was 1 of 6.

For `COc1cc(Cl)ccc1NC(=O)Nc1ccc(CCO)cc1`, the survivor count (T/C endpoint: mean survival time, dose: 200.0 mg/kg/injection, schedule: Q01DX009 (ip), vehicle: saline with Tween-80) was 3 of 3.

`CN(C)N=Nc1ccc(C(F)(F)F)cc1` was tested, and the survivor count (T/C endpoint: mean survival time, dose: 266.0 mg/kg/injection, schedule: Q01DX009 (ip), vehicle: Klucel (hydroxypropylcellulose) (HPC)) was 2 of 6, the survivor count (T/C endpoint: mean survival time, dose: 400.0 mg/kg/injection, schedule: Q01DX009 (ip), vehicle: Klucel (hydroxypropylcellulose) (HPC)) was 0 of 6 and the survivor count (T/C endpoint: mean survival time, dose: 600.0 mg/kg/injection, schedule: Q01DX009 (ip), vehicle: Klucel (hydroxypropylcellulose) (HPC)) was 0 of 6.

With `c1ccc(P(CCNCCP(c2ccccc2)c2ccccc2)c2ccccc2)cc1` the survivor count (T/C endpoint: median survival time, dose: 400.0 mg/kg/injection, schedule: Q01DX009 (ip), vehicle: saline with Tween-80) was 3 of 6.

`COc1ccc2c(c1O)CNCC2c1ccc(O)cc1O` (centres undefined) was tested, and the survivor count [1] was 0 of 6.

In the case of `CCCC(=O)OCC1OC(n2cnc3c(=S)nc[nH]c32)C(OC(=O)CCC)C1OC(=O)CCC` (centres undefined), the T/C (T/C endpoint: mean survival time, dose: 45.0 mg/kg/injection, schedule: Q04DX003 (ip), vehicle: saline with Tween-80) was 140 % of control and the T/C (T/C endpoint: mean survival time, dose: 65.0 mg/kg/injection, schedule: Q04DX003 (ip), vehicle: saline with Tween-80) was 140 % of control.

With `CC1C(c2ccccc2)OC(N2CCOCC2)C(C)(C)CN1C` (centres undefined) the survivor count (T/C endpoint: median survival time, dose: 800.0 mg/kg/injection, schedule: Q01DX009 (ip), vehicle: saline with Tween-80) was 0 of 6.

`CC12CCC(=O)C=C1CCC1C2CCC2(C)C(C(=O)O)CCC12` (centres undefined) was tested, and the survivor count [3] was 3 of 6.

For `O=C(O)CNCNCC(=O)O`, the survivor count (T/C endpoint: mean survival time, dose: 400.0 mg/kg/injection, schedule: Q04DX002 (ip), vehicle: saline) was 1 of 3.

With `CCOC(C[Se][Se]CC(OCC)OCC)OCC` the survivor count (T/C endpoint: mean survival time, dose: 12.5 mg/kg/injection, schedule: Q01DX009 (ip), vehicle: saline) was 0 of 6, the survivor count (T/C endpoint: mean survival time, dose: 25.0 mg/kg/injection, schedule: Q04DX003 (ip), vehicle: saline with Tween-80) was 0 of 6 and the survivor count [4] was 0 of 6. For the same compound, the survivor count [5] was 0 of 6 and the survivor count [3] was 0 of 6.

`CCC(=O)c1cc([N+](=O)[O-])ccc1N` was tested, and the survivor count [3] was 5 of 6.

`CCN1CCS/C1=C\C=C\C1=[N+](CC)CCS1` was tested, and the survivor count (T/C endpoint: mean survival time, dose: 5.0 mg/kg/injection, schedule: Q01DX001 (ip), vehicle: other) was 1 of 6, the survivor count (T/C endpoint: mean survival time, dose: 75.0 mg/kg/injection, schedule: Q01DX001 (ip), vehicle: other) was 0 of 6 and the survivor count (T/C endpoint: mean survival time, dose: 150.0 mg/kg/injection, schedule: Q01DX001 (ip), vehicle: other) was 0 of 6. For the same compound, the survivor count (T/C endpoint: mean survival time, dose: 300.0 mg/kg/injection, schedule: Q01DX001 (ip), vehicle: other) was 0 of 6.

With `OCC1OC([Se])C(O)C(O)C1O.[CH3][Sb][CH3]` (centres undefined) the survivor count (T/C endpoint: mean survival time, dose: 100.0 mg/kg/injection, schedule: Q01DX009 (ip), vehicle: Klucel (hydroxypropylcellulose) (HPC)) was 0 of 3 and the survivor count [2] was 0 of 3.

In the case of `CCC(=O)O.CCC(=O)O.CCC(=O)O.CCC(=O)O.O=P1(N(CCCl)CCCl)NCCCO1.O=P1(N(CCCl)CCCl)NCCCO1.[Rh].[Rh]` (centres undefined), the survivor count (T/C endpoint: mean survival time, dose: 8.0 mg/kg/injection, schedule: Q01DX001 (ip), vehicle: water) was 3 of 6, the survivor count (T/C endpoint: mean survival time, dose: 15.63 mg/kg/injection, schedule: Q01DX001 (ip), vehicle: water) was 0 of 6 and the survivor count (T/C endpoint: mean survival time, dose: 31.25 mg/kg/injection, schedule: Q01DX001 (ip), vehicle: water) was 0 of 6. For the same compound, the survivor count (T/C endpoint: mean survival time, dose: 62.5 mg/kg/injection, schedule: Q01DX001 (ip), vehicle: water) was 0 of 6, the survivor count (T/C endpoint: mean survival time, dose: 125.0 mg/kg/injection, schedule: Q01DX001 (ip), vehicle: water) was 0 of 6 and the survivor count (T/C endpoint: mean survival time, dose: 250.0 mg/kg/injection, schedule: Q01DX001 (ip), vehicle: water) was 0 of 6. The survivor count (T/C endpoint: mean survival time, dose: 500.0 mg/kg/injection, schedule: Q01DX001 (ip), vehicle: water) was 0 of 6.

`CC(=N\N)/C(C)=N/N` was tested, and the survivor count [5] was 3 of 6 and the survivor count [3] was 2 of 6.

With `COC12C(COC(N)=O)C3=C(C(=O)C(C)=C(N4CC4)C3=O)N1CC1NC12` (centres undefined) the T/C (T/C endpoint: mean survival time, dose: 0.22 mg/kg/injection, schedule: Q01DX007 (ip), vehicle: acetone) was 141 % of control, the T/C (T/C endpoint: mean survival time, dose: 0.33 mg/kg/injection, schedule: Q01DX007 (ip), vehicle: acetone) was 146 % of control and the survivor count (T/C endpoint: mean survival time, dose: 0.5 mg/kg/injection, schedule: Q01DX001 (ip), vehicle: acetone) was 4 of 4. The survivor count (T/C endpoint: mean survival time, dose: 0.66 mg/kg/injection, schedule: Q01DX001 (ip), vehicle: acetone) was 0 of 4, the T/C (T/C endpoint: mean survival time, dose: 0.66 mg/kg/injection, schedule: Q01DX001 (ip), vehicle: carboxymethylcellulose (CMC)) was 148 % of control and the survivor count (T/C endpoint: mean survival time, dose: 1.0 mg/kg/injection, schedule: Q01DX001 (ip), vehicle: acetone) was 2 of 4. For the same compound, the survivor count (T/C endpoint: mean survival time, dose: 1.5 mg/kg/injection, schedule: Q01DX001 (ip), vehicle: acetone) was 0 of 4.

`Brc1c(NC2=NCCN2)ccc2nccnc12` was tested, and the T/C (T/C endpoint: median survival time, dose: 12.5 mg/kg/injection, schedule: Q01DX009 (ip), vehicle: saline) was 103, 112, 116, 120 % of control (2×), the T/C (T/C endpoint: median survival time, dose: 25.0 mg/kg/injection, schedule: Q01DX009 (ip), vehicle: saline) was 100 [5 of 6 alive], 119 [9 of 10 alive], 120 [5 of 6 alive], 130 % of control and the T/C [6] was 98 [5 of 6 alive], 130 [5 of 6 alive], 137 % of control. For the same compound, the survivor count [6] was 5 of 10, the survivor count (T/C endpoint: median survival time, dose: 100.0 mg/kg/injection, schedule: Q01DX009 (ip), vehicle: saline) was 3 of 10 and 2 of 6 and the survivor count (T/C endpoint: median survival time, dose: 200.0 mg/kg/injection, schedule: Q01DX009 (ip), vehicle: saline) was 2 of 10.

For `CC1CC(C)(C)[N+](C)=C(CCc2ccccc2)O1` (centres undefined), the survivor count [7] was 1 of 6 and the survivor count [8] was 0 of 6.

In the case of `Cc1cccc[n+]1Cc1ccccc1`, the survivor count (T/C endpoint: mean survival time, dose: 75.0 mg/kg/injection, schedule: Q01DX001 (ip), vehicle: saline) was 2 of 6, the survivor count (T/C endpoint: mean survival time, dose: 150.0 mg/kg/injection, schedule: Q01DX001 (ip), vehicle: saline) was 0 of 6 and the survivor count [1] was 6 of 6.

With `CC(C)(C)CC(C)(C)NCC(O)COc1ccc(C(C)(C)c2ccc(OCC(O)CNC(C)(C)CC(C)(C)C)cc2)cc1` (centres undefined) the survivor count (T/C endpoint: mean survival time, dose: 25.0 mg/kg/injection, schedule: Q01DX009 (ip), vehicle: Klucel (hydroxypropylcellulose) (HPC)) was 5 of 6, the survivor count (T/C endpoint: mean survival time, dose: 100.0 mg/kg/injection, schedule: Q01DX001 (ip), vehicle: saline with Tween-80) was 0 of 6 and the survivor count [7] was 0 of 6. For the same compound, the survivor count [8] was 0 of 6.

For `O=C(COc1ccc(Cl)c(Cl)c1)Nc1ccc[n+](Cc2ccccc2)c1`, the survivor count [4] was 3 of 6, the survivor count [5] was 0 of 6 and the survivor count [3] was 0 of 6.

With `CC(C)NCCO` the survivor count [1] was 0 of 6 and the survivor count (T/C endpoint: mean survival time, dose: 400.0 mg/kg/injection, schedule: Q01DX001 (ip), vehicle: saline) was 0 of 4.

For `Cc1ccc(S(=O)(=O)OC2C(O)C(CO)OC2n2c(Br)c(C#N)c3c(N)ncnc32)cc1` (centres undefined), the survivor count (T/C endpoint: mean survival time, dose: 400.0 mg/kg/injection, schedule: Q01DX005 (ip), vehicle: saline with Tween-80) was 2 of 4.

With `CCc1c2c(nc3ccc(OC(=O)N4CCC(N5CCCCC5)CC4)cc13)-c1cc3c(c(=O)n1C2)COC(=O)[C@]3(O)CC` the survivor count (T/C endpoint: median survival time, dose: 133.4 mg/kg/injection, schedule: Q04DX002 (ip), vehicle: water) was 3 of 6, the survivor count (T/C endpoint: median survival time, dose: 133.4 mg/kg/injection, schedule: Q04HX004 (iv), vehicle: water) was 0 of 10 and the survivor count (T/C endpoint: median survival time, dose: 200.0 mg/kg/injection, schedule: Q04DX002 (ip), vehicle: water) was 0 of 6.

With `COC(=O)c1ccccc1NC(=O)/C=C/C(=O)O` the survivor count [3] was 0 of 6.

For `CC1=NN(c2ccccc2)C(=O)C1N=Nc1ccc([As](=O)(O)O)c(O)c1` (centres undefined), the survivor count (T/C endpoint: mean survival time, dose: 400.0 mg/kg/injection, schedule: Q01DX009 (ip), vehicle: saline with Tween-80) was 3 of 6.

For `CCC(=O)Nc1cc([N+](=O)[O-])cc([N+](=O)[O-])c1`, the survivor count (T/C endpoint: mean survival time, dose: 400.0 mg/kg/injection, schedule: Q04DX002 (ip), vehicle: saline with Tween-80) was 0 of 3.
